# Data as given in PubChem BioAssay AID1159584 (Peter MacCallum Cancer Centre, 2016)
# Aim: 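Genes that CDH1-null MCF10A cells selectively depend on to survive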 (primary screen)
# Cells: human MCF10A breast epithelial cells, parental and CDH1-null
# Reagent: siRNA against human genes
# Measured: 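Cell viability by CellTiter-Glo ATP luminescence, each line scaled to the mean of mock wells across plates, then CDH1-null over parental ratio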
# Reading the numbers: CDH1-null / parental viability ratio: higher = CDH1-null cells survive relatively better than parental; CDH1-null viability vs mock: higher = more viable CDH1-null cells
# The whole screen tested about 18,000 reagents; below is an unselected part. Further read-outs or replicates are left out here. No sequences are given here. The record does not give: the amount of reagent, the time to read-out.
Gene,CDH1-null / parental viability ratio,CDH1-null viability vs mock (fraction of mock)
"ACAP1 (ArfGAP with coiled-coil, ankyrin repeat and PH domains 1)",1.18,0.9
"ALG3 (ALG3 alpha-1,3- mannosyltransferase)",1.07,0.9
STK32C (serine/threonine kinase 32C),0.96,0.77
HMMR (hyaluronan mediated motility receptor),1.21,0.94
RASGRP3 (RAS guanyl releasing protein 3),1.1,0.56
PRPF4 (pre-mRNA splicing tri-snRNP complex factor PRPF4),1.45,0.8
ATP5PF (ATP synthase peripheral stalk subunit F6),0.98,0.63
WNT16 (Wnt family member 16),1,0.86
SPMIP6 (sperm microtubule inner protein 6),1.31,0.76
ISCA1P1 (iron-sulfur cluster assembly 1 pseudogene 1),0.82,0.75
OR2H2 (olfactory receptor family 2 subfamily H member 2),0.86,0.88
STK39 (serine/threonine kinase 39),0.68,0.42
NME3 (NME/NM23 nucleoside diphosphate kinase 3),0.99,0.79
"RAB40B (RAB40B, member RAS oncogene family)",0.96,0.87
"ADH7 (alcohol dehydrogenase 7 (class IV), mu or sigma polypeptide)",1.13,0.7
FAM9A (family with sequence similarity 9 member A),0.84,0.58
ZNF280B (zinc finger protein 280B),0.96,0.86
RNF114 (ring finger protein 114),0.91,0.94
SNX5 (sorting nexin 5),0.95,0.8
CCDC51 (coiled-coil domain containing 51),0.71,0.64
TRA2B (transformer 2 beta homolog),1.44,0.95
LEFTY1 (left-right determination factor 1),1.03,0.64
SLC5A10,1.1,1.19
"CLCA3P (chloride channel accessory 3, pseudogene)",1.04,0.98
SYDE1 (synapse defective Rho GTPase activating protein 1),1.11,0.78
BEND5 (BEN domain containing 5),1.14,0.84
AFF1 (ALF transcription elongation factor 1),0.82,0.33
FAM174A (family with sequence similarity 174 member A),1.2,0.89
LY6G6D (lymphocyte antigen 6 family member G6D),1.01,0.88
CWF19L1 (CWF19 like cell cycle control factor 1),1.03,0.76
CHMP2B (charged multivesicular body protein 2B),1.19,0.62
TMEM259 (transmembrane protein 259),0.9,0.36
PCNX2 (pecanex 2),0.84,0.74
ARNT2 (aryl hydrocarbon receptor nuclear translocator 2),1.19,1.02
DMPK (DM1 protein kinase),0.96,0.86
GOLGA7B (golgin A7 family member B),0.92,0.55
ZBTB21 (zinc finger and BTB domain containing 21),1.46,0.92
NOL10 (nucleolar protein 10),1.06,0.66
PTMS (parathymosin),1.18,1.04
ZC3H15 (zinc finger CCCH-type containing 15),0.76,0.65
SPIN3 (spindlin family member 3),0.79,0.64
NMRK1 (nicotinamide riboside kinase 1),0.97,0.92
RPL23 (ribosomal protein L23),1.31,0.34

Entries listed so far whose gene name starts with C or c (4):
Gene,CDH1-null / parental viability ratio,CDH1-null viability vs mock (fraction of mock)
CCDC51 (coiled-coil domain containing 51),0.71,0.64
"CLCA3P (chloride channel accessory 3, pseudogene)",1.04,0.98
CWF19L1 (CWF19 like cell cycle control factor 1),1.03,0.76
CHMP2B (charged multivesicular body protein 2B),1.19,0.62

More results follow:
Gene,CDH1-null / parental viability ratio,CDH1-null viability vs mock (fraction of mock)
SOX4 (SRY-box transcription factor 4),0.79,0.65
HSFY1 (heat shock transcription factor Y-linked 1),0.71,0.61
LRFN2,0.8,0.67
PHKA2 (phosphorylase kinase regulatory subunit alpha 2),0.95,0.7
GABRR1 (gamma-aminobutyric acid type A receptor subunit rho1),1.49,0.82
TRNP1 (TMF1 regulated nuclear protein 1),1.21,0.82
KRTAP10-7 (keratin associated protein 10-7),1.04,0.71
PABPC1L2A (poly(A) binding protein cytoplasmic 1 like 2A),1.05,0.84
TRIP10 (thyroid hormone receptor interactor 10),1.16,0.5
BOLL (boule RNA binding protein),0.96,0.98
NPAS1 (neuronal PAS domain protein 1),0.96,1
CPEB4 (cytoplasmic polyadenylation element binding protein 4),1.14,0.97
DCTPP1 (dCTP pyrophosphatase 1),1.1,0.92
CFTR (CF transmembrane conductance regulator),1.04,0.94
VPS33B (VPS33B late endosome and lysosome associated),1.11,0.82
TBL3 (transducin beta like 3),0.93,0.64
KY (kyphoscoliosis peptidase),1.14,0.5
"RAB5A (RAB5A, member RAS oncogene family)",0.75,0.55
KLK7 (kallikrein related peptidase 7),1.33,0.96
SARAF (store-operated calcium entry associated regulatory factor),0.9,0.94
HOXC5 (homeobox C5),1.59,0.7
NT5DC3 (5'-nucleotidase domain containing 3),1.04,0.82
PGBD1 (piggyBac transposable element derived 1),1.06,1.04
"HARS2 (histidyl-tRNA synthetase 2, mitochondrial)",0.92,0.88
ACADL (acyl-CoA dehydrogenase long chain),0.64,0.62
